Assay results taken from paper PMC12040169 (PLOS Biology, 2025).
The list shows a part of the results.

tested on: T1, CTL2-GFP (C. trachomatis L2/434/Bu, GFP-expressing); design: species or system HeLa; Intracellular C. trachomatis growth in HeLa cells, bulk GFP fluorescence relative to DMSO; conditions: bulk GFP, single well; 28.5 h, 10 µM; inhibitor
T1 construct: L2/434/Bu, GFP-expressing

First: COC(=O)CNC(=O)c1nc(SC)ncc1Cl [CBK057651]
Second: COc1ccc(Cl)cc1NC(=O)CC(C)(C)CC(=O)O [CBK001236]
The “% of control remaining” value of the first is lower: 107.181% for the first, 119.119% for the second.

First: COc1ccc(Oc2cc(Cl)nc(N)n2)cc1 [CBK261771]
Second: COc1ccc(NC(=O)c2cnccn2)c(OC)c1 [CBK262240]
The “% of control remaining” value of the first is higher: 107.965% for the first, 101.92% for the second.

Compared with `O=C(O)c1oc2ccccc2c1CN1CCN(c2ccccc2)CC1` [CBK286948], `Clc1ccc(CN2CCN(CCc3ccccc3)CC2)cc1Cl` [CBK126420] is lower in “% of control remaining” value: 136.137% for the first, 129.801% for the second.

Going from `COc1cc(CNc2cc(-c3ccc(N4CCOCC4)cc3)ncn2)cc(OC)c1OC` [CBK091174] to `COc1cc2c(cc1OC)CN(C(=O)CSc1nc(-c3cccnc3)ccc1C#N)CC2` [CBK267464], the “% of control remaining” value falls from 174.919% to 138.89%.

Compared with `COc1ccc(F)cc1-c1cccc(CC2(C(=O)NCc3cccs3)CCOCC2)c1` [CBK285543], `COc1ccccc1-c1nccnc1NCc1cccs1` [CBK088682] is lower in “% of control remaining” value: 109.581% for the first, 100.913% for the second.

First: Cc1ccc(NC(=O)c2cncc(-c3ccc(C(=O)N4CCOCC4)cc3)c2)c(O)c1 [CBK160208]
Second: CNCC1CCCN(C(=O)c2ccc(Oc3cccnc3)cc2)C1 (stereo not drawn) [CBK304479]
The “% of control remaining” value of the first is higher: 135.983% for the first, 131.277% for the second.

First: Cc1ccc(-c2nn3c(C)nnc3s2)cc1NC(=O)c1ccc([N+](=O)[O-])o1 [CBK267247]
Second: COc1ccc(C)cc1NC(=O)CSc1nnc(-c2ccccc2Cl)n1-c1ccccc1 [CBK267538]
The “% of control remaining” value of the first is higher: 113.716% for the first, 101.907% for the second.

Going from `Cn1c(=O)c(-c2ccccc2)nc2ccccc21` [CBK016192] to `O=C1c2ccccc2NC(c2cnc3ccccc3n2)N1O` (stereo not drawn) [CBK288357], the “% of control remaining” value rises from 115.345% to 139.283%.

First: Cc1cc(N2CCCC2)c(F)cc1CN1CCC(O)C(C)C1 (stereo not drawn) [CBK282963]
Second: COC(=O)CCc1ccc(S(=O)(=O)N2CCCN(Cc3cc(F)cc(F)c3)CC2)cc1 [CBK062990]
The “% of control remaining” value of the first is higher: 153.289% for the first, 115.732% for the second.

First: CC1CCCN(C(=O)c2cc(-c3ccccn3)n[nH]2)C1C (stereo not drawn) [CBK283146]
Second: CCn1nc(C(C)C)cc1C(=O)N1CCN(C)CC1c1ccccc1 (stereo not drawn) [CBK282025]
The “% of control remaining” value of the first is higher: 126.364% for the first, 108.219% for the second.

First: CS(=O)(=O)N(CC(=O)Nc1ccc2c(c1)OCO2)c1ccc(Oc2ccccc2)cc1 [CBK263989]
Second: Cc1[nH]c(=O)c(C(=O)Nc2ccc(-n3ccc(C(N)=O)n3)cc2)cc1-c1ccccc1 [CBK291194]
The “% of control remaining” value of the first is higher: 120.666% for the first, 88.344% for the second.

Compared with `CN(C)CCCNC(=O)C1CCCCN1S(=O)(=O)c1ccc(C(C)(C)C)cc1` (stereo not drawn) [CBK200070], `O=C(O)C1CCCCN1S(=O)(=O)c1ccc(Cl)cc1` (stereo not drawn) [CBK077418] is lower in “% of control remaining” value: 133.393% for the first, 76.7703% for the second.

Compared with `CC(C)NC(=O)CN1CCC(Oc2nccnc2OCc2ccc(Cl)c(Cl)c2)CC1` [CBK153791], `O=C(NC1CCCC1)c1ccc2nccnc2c1` [CBK200217] is higher in “% of control remaining” value: 96.6276% for the first, 105.413% for the second.

Going from `C/C(=C\c1ccccc1)CN1CCC(C(=O)N2CCN(Cc3ccc4c(c3)OCO4)CC2)CC1` [CBK264327] to `O=C(O)CCc1ccc(-c2cc(N3CCN(CC(=O)N4CCCC4)CC3)ncn2)cc1` [CBK091079], the “% of control remaining” value rises from 130.149% to 140.922%.

First: COc1cc(OC)nc(C(NC(=O)C2CCN(CCc3c[nH]c4ccccc34)CC2)c2ccccc2C)n1 (stereo not drawn) [CBK148101]
Second: O=c1c2ccccc2[nH]c(=S)n1CCCN1CCC(Cc2ccccc2)CC1 [CBK267952]
The “% of control remaining” value of the first is lower: 83.0397% for the first, 136.298% for the second.

Going from `COc1cc(OC)nc(CN2C(=O)C3(CC(=O)N(CCCN4C(=O)c5ccccc5C4=O)C3=O)c3cc(C)ccc32)n1` (stereo not drawn) [CBK075992] to `C=CCN1C(=O)CC2(C1=O)C(=O)N(C)c1ccccc12` (stereo not drawn) [CBK075472], the “% of control remaining” value falls from 126.213% to 87.9782%.

Compared with `Cc1cc2c(cc1Cl)C(=O)CC1(CCNCC1)O2` [CBK282715], `Cn1ccnc1C1(O)CCN(C(=O)c2cccc(F)c2)CC1` [CBK283543] is lower in “% of control remaining” value: 142.664% for the first, 117.093% for the second.

First: CN(C)CCn1c2c(c3ccccc31)CCCn1cnnc1-2 [CBK267712C]
Second: CC1(CNC(=O)c2cc(C3CC3)nc3ccccc23)COC1 [CBK281752]
The “% of control remaining” value of the first is lower: 128.869% for the first, 149.373% for the second.

Compared with `CCc1cn(C[C@H](NC(=O)c2ccco2)C(=O)O)c(=O)[nH]c1=O` [CBK289670], `Cc1cccc(C=C(Cl)c2nc3sc(C(=O)O)c(C)c3c(=O)[nH]2)c1` [CBK295626] is higher in “% of control remaining” value: 132.078% for the first, 150.94% for the second.

First: COc1cc(NC(=O)CSc2ncnc3sc4c(c23)CCCC4)cc(OC)c1 [CBK267547]
Second: Cc1sc2ncn(CC(=O)NCc3nnc4n3CCC4)c(=O)c2c1C [CBK305654]
The “% of control remaining” value of the first is lower: 120.352% for the first, 155.579% for the second.

Going from `CCc1ncsc1C(=O)NC1CCCN(c2ccn(C)n2)C1=O` (stereo not drawn) [CBK306498] to `CCc1nc2n(n1)CC(NCc1nc(C)ccc1O)CC2` (stereo not drawn) [CBK306107], the “% of control remaining” value rises from 112.709% to 118.728%.

Compared with `CSc1ccc(-c2cn3ccnc3c(Nc3ccccc3)n2)cc1` [CBK066537], `O=C(CSc1n[nH]c(-c2ccccc2Cl)n1)Nc1ccccc1F` [CBK265901] is lower in “% of control remaining” value: 200.591% for the first, 118.817% for the second.

First: COc1ccc(C2CC(c3c(-c4ccccc4)c4cc(Cl)ccc4[nH]c3=O)=NN2C(=O)CCC(=O)O)cc1OC (stereo not drawn) [CBK296128]
Second: COc1ccccc1-c1cccc(C2CCCN(C(=O)CCCc3ccccc3)C2)n1 (stereo not drawn) [CBK286217]
The “% of control remaining” value of the first is higher: 144.08% for the first, 88.3049% for the second.

First: CCN(CC)C(=O)c1sccc1NS(=O)(=O)c1ccc(OC)c(OC)c1 [CBK004596]
Second: CCOC(CCNC(=O)c1cnc(Nc2ccccc2OC)c2ccccc12)OCC [CBK291184]
The “% of control remaining” value of the first is lower: 94.6797% for the first, 131.426% for the second.

Compared with `N#Cc1cc(SCCC(=O)O)c(N2CCOCC2)cc1C#N` [CBK269212], `COc1cccc2cc(C(=O)C3=C(O)C(=O)N(CCN4CCOCC4)C3c3cccs3)oc12` (stereo not drawn) [CBK269433] is lower in “% of control remaining” value: 133.34% for the first, 129.46% for the second.

Going from `O=C(CCn1cccn1)N1Cc2ccccc2CC1C1CCOCC1` (stereo not drawn) [CBK282262] to `O=C(COc1cccnc1)N[C@H]1C2CCCCC2[C@@H]1c1ccccc1` (stereo partly drawn) [CBK282951], the “% of control remaining” value falls from 120.896% to 109.031%.

First: CCOC(=O)C1(C2CCCCC2)CCN(C(=O)c2cccnc2)CC1 [CBK137104T]
Second: NC(=O)NC(CC(=O)N1CCCC1c1ccncc1)c1cccc(Br)c1 (stereo not drawn) [CBK306345]
The “% of control remaining” value of the first is lower: 111.994% for the first, 129.915% for the second.

First: Fc1c(F)c(Oc2ccccc2Cl)c(F)c(F)c1/C=C/CN1CCOCC1 [CBK269318C]
Second: COc1cc(F)ccc1-c1ccc(N)c2ccccc12 [CBK084319]
The “% of control remaining” value of the first is lower: 126.348% for the first, 165.623% for the second.

Going from `CC(C)(C)c1cn(C[C@H]2CC3CCN2C[C@@H]3C(=O)NCc2ccc(F)cc2)nn1` (stereo partly drawn) [CBK289081] to `O=[N+]([O-])c1cc(S(=O)(=O)Nc2ccccc2)ccc1N1CCN2CCCC2C1` (stereo not drawn) [CBK001248], the “% of control remaining” value falls from 147.593% to 132.51%.

Going from `CN1CCN(S(=O)(=O)c2ccc(NC(=O)c3cc(-c4ccncc4)nc4ccc(Cl)cc34)cc2)CC1` [CBK267730] to `CCC1CCc2c(sc(NC(=O)c3cc(-c4ccc(C)cc4C)nc4ccccc34)c2C(=O)OC)C1` (stereo not drawn) [CBK262629], the “% of control remaining” value falls from 160.836% to 118.094%.

First: O=C(/C=C/c1ccco1)NC(=S)Nc1ccccc1[N+](=O)[O-] [CBK264375]
Second: O=C(NCCNC(=O)c1ccccn1)c1ccccn1 [CBK265654]
The “% of control remaining” value of the first is lower: 89.4993% for the first, 124.38% for the second.

Going from `C=CCn1c2cc(C)sc2c2cnn(CC(=O)NC3CC3)c(=O)c21` [CBK284149] to `Cc1cc(C)n(C(C)CC(=O)NCC(C)N2CCC(C)CC2)n1` (stereo not drawn) [CBK282104], the “% of control remaining” value falls from 120.809% to 109.552%.

Going from `Cc1ccc(CCC(=O)C(C#N)c2nc3ccccc3s2)o1` (stereo not drawn) [CBK268944] to `Cc1cccc(OCc2nnc(SCc3nc4ccccc4c(=O)[nH]3)o2)c1` [CBK269030], the “% of control remaining” value rises from 82.0599% to 136.403%.

Compared with `COc1cc2c(cc1CN(Cc1ccc3c(c1)OCO3)CC(C)O)CCC2` (stereo not drawn) [CBK286473], `COc1ccc(Oc2nccnc2N2CCN(CCCC#N)CC2)cc1OC` [CBK083056T] is higher in “% of control remaining” value: 99.4738% for the first, 124.371% for the second.

Going from `CC(C)C1SC(=NC2CC3CCC2C3)N(C)C1=O` (stereo not drawn) [CBK076727] to `CN1CCN(c2nccnc2-c2ccoc2)CC1` [CBK088834], the “% of control remaining” value rises from 126.58% to 129.735%.

First: Cc1cc(Cl)ccc1NC(=O)CCC(=O)N/N=C/c1ccc(O)cc1 [CBK261974]
Second: O=C1N/C(=N/c2ccccc2Cl)S/C1=C/c1ccc(-c2ccccc2Cl)o1 [CBK067752]
The “% of control remaining” value of the first is higher: 119.202% for the first, 105.752% for the second.

Compared with `CN(Cc1ccccc1)C(=O)[C@@H]1Cc2[nH]cnc2CN1Cc1cc2ccccc2o1` [CBK288978], `N=C(N)SCP(=O)(c1ccccc1)c1ccccc1` [CBK260990] is higher in “% of control remaining” value: 81.1875% for the first, 87.8526% for the second.

Compared with `Cc1ccc2c(N)c(C(=O)c3cccs3)sc2n1` [CBK115369], `O=C(NCCc1ccccc1)c1cc(Br)cnc1NCCCn1ccnc1` [CBK076421] is higher in “% of control remaining” value: 100% for the first, 111.398% for the second.

Going from `CCCCNC(=O)N(O)C1N(C)C(=S)SC1(C)C` (stereo not drawn) [CBK006880] to `Clc1ccc(-c2c[nH]c([C@@H]3COCCN3Cc3c[nH]cn3)n2)cc1` [CBK289316], the “% of control remaining” value falls from 124.962% to 109.21%.
